No constants are given. Whether binding was seen depends on the method and setting. In cells and extracts the contact can be indirect. These calls come from enrichment with a bait or labelling near it, and not all partners need be listed. A no says only that the protein was not detected with the bait. For some assays here: Sequences can lack the tags named with a protein.
B1: transcription factor Foxo, Q95V55 1-613 (protein)
chain: MMDGYAQEWPRLTHTDNGLAMDQLGGDLPLDVGFEPQTRARSNTWPCPRPENFVEPTDELDSTKASNQQLAPGDSQQAIQNANAAKKNSSRRNAWGNLSYADLITHAIGSATDKRLTLSQIYEWMVQNVPYFKDKGDSNSSAGWKNSIRHNLSLHNRFMRVQNEGTGKSSWWMLNPEAKPGKSVRRRAASMETSRYEKRRGRAKKRVEALRQAGVVGLNDATPSPSSSVSEGLDHFPESPLHSGGGFQLSPDFRQRASSNASSCGRLSPIRAQDLEPDWGFPVDYQNTTMTQAHAQALEELTGTMADELTLCNQQQQGFSAASGLPSQPPPPPYQPPQHQQAQQQQQQQSPYALNGPASGYNTLQPQSQCLLHRSLNCSCMHNARDGLSPNSVTTTMSPAYPNSEPSSDSLNTYSNVVLDGPADTAALMVQQQQQQQQQQQLSASLEGQCLEVLNNEAQPIDEFNLENFPVGNLECNVEELLQQEMSYGGLLDINIPLATVNTNLVNSSSGPLSISNISNLSNISSNSGSSLSLNQLQAQLQQQQQQQQAQQQQQAQQQQQQHQQHQQQLLLNNNNNSSSSLELATQTATTNLNARVQYSQPSVVTSPPSWVH
B2: Retinoblastoma protein (RBF in Drosophila) (protein, UniProt Q24472 1-845)
chain: MSEPDPQELGAEVVSGLVATSDDRLEMINAEYTNLCRDLNMDRQTELQGYETYLEVSQRCSMEGTASHWMCCAIYTACRRTSTPTVTGQNAVVKGNCVSLNNLLRCCKMSIYEFKTKIKQWCDMANLPQEFVNEIEDLDRKFSITFMLHKRFRIIMDMIFSCPPNEKKHSKYISLHGNHAHGKCSYIKLDDICWRLFLCAKNQKPSNTVDLVTSYNLMICCIDLIYNNVLAEKRTDLINPKFEGLPSNWTELDFRHNPHCILSNFCDMTEEAKAMKATTFRQIMSSFFQASTIYGNKDTMLGLLANENFERNLKSLNISYEQYVLSVGEFDERILSAYDAGEHTALNDQSLRPPVTPLTRKQDLPAQPAMAGDKFEPVRNATNNVKQLSAFGRITEPTDFVKQAGEEVIAKLLSIIEEIEQKFLAKYPSTEAKSRFQLAKSFFFYLLDQILQAEIRNKPDIDLKRLLVQKVSLVIFNITLMACCVELVLEAYKTELKFPWVLDCFSISAFEFQKIIEIVVRHGSHEGCLNRSLIKHLNSIEETCLERLAWARNSTVWEMIASAQLPLPTWLMVNLDRAAGPLQIFLRKVYLLGWLRIQKLCSELSLCEKTPESIWHIFEHSITHETELMKDRHLDQNIMCAIYIYIRVKRMEDPKFSDIMRAYRNQPQAVNSVYREVFIDINEDGEPKVKDIIHFYNHTYVPLMRQFVIDYLNVTPDVSGRASDLQLSPHPKERAAQPKKVTQSHSLFVSQMSKNEIQQSPNQMVYSFCRSPAKDLQAMNEKVRGGKRMLSFGDEPGLGTMAETKRSKISQVKAVMDDPELQSAEQQTAVTTEGCVGGEGGEHET

How the values were obtained:
[1] = molecular target: T1, TurboID-tagged KDM5 (Lysine demethylase 5), N-terminal (NT-KDM5) or C-terminal (CT-KDM5) TurboID fusion (Drosophila melanogaster), Q9VMJ7; test: proximity labelling; TurboID fused to the N- or C-terminus of KDM5, expressed with Ubi-Gal4 in kdm5^140 null flies; adult heads lysed in RIPA, biotinylated proteins recovered on streptavidin magnetic beads, on-bead trypsin digestion, LC-MS/MS; enrichment over control (kdm5^140;gkdm5:HA) in experiments 1 and 2 and over dCas9:TurboID in experiment 2; nuclear proteins filtered at p < 0.1 across six datasets (high …); conditions: remark: other sources report otherwise
T1 chain: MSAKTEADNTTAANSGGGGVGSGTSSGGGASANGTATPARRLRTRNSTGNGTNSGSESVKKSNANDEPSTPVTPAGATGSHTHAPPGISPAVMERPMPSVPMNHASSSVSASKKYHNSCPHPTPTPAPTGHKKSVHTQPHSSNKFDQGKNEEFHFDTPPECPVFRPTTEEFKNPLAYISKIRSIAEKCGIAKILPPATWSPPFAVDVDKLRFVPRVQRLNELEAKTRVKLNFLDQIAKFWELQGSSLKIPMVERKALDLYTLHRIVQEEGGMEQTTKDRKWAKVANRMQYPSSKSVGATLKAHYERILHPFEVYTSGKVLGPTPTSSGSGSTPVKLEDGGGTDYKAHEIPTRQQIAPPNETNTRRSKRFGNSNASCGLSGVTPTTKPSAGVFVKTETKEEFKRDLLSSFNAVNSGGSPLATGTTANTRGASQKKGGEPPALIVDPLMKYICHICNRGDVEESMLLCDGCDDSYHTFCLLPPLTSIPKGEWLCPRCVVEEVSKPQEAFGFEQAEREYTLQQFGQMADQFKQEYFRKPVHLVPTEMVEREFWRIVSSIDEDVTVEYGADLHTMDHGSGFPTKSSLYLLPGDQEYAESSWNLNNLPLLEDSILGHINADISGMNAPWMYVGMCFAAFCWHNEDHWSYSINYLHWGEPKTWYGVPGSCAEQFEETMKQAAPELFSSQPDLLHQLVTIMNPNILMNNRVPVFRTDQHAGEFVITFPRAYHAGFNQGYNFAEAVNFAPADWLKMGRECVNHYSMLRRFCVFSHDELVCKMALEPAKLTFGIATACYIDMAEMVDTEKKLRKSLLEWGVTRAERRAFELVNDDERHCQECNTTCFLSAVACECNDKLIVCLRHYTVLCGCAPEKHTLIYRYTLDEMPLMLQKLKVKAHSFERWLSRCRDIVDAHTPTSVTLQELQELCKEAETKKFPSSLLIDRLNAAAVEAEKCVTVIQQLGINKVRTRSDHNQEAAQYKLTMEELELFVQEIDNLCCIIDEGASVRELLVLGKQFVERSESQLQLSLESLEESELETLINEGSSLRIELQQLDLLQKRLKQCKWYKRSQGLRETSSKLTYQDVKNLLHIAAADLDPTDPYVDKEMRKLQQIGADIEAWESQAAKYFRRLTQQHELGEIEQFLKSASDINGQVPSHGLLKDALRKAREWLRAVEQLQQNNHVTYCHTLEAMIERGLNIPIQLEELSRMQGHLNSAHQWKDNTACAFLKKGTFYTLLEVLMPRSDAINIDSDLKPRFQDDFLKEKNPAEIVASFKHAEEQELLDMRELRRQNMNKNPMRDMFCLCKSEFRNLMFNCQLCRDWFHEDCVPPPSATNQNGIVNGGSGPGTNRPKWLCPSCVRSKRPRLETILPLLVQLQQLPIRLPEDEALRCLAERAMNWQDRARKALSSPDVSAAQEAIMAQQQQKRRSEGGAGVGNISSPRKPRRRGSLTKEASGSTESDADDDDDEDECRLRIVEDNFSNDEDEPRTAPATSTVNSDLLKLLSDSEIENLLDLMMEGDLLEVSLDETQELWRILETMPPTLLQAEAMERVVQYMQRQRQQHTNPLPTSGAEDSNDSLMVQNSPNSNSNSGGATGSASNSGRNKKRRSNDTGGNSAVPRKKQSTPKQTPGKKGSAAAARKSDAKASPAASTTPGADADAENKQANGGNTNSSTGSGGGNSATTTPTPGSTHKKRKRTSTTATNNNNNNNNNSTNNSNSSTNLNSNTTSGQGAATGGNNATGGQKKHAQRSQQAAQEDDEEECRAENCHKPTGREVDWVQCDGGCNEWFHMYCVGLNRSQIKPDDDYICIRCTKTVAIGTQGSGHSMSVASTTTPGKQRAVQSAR

[2] = molecular target: TurboID-tagged KDM5 (Lysine demethylase 5), N-terminal (NT-KDM5) or C-terminal (CT-KDM5) TurboID fusion (Drosophila melanogaster) (UniProt Q9VMJ7); test: proximity labelling; TurboID fused to the N- or C-terminus of KDM5, expressed with Ubi-Gal4 in kdm5^140 null flies; adult heads lysed in RIPA, biotinylated proteins recovered on streptavidin magnetic beads, on-bead trypsin digestion, LC-MS/MS; enrichment over control (kdm5^140;gkdm5:HA) in experiments 1 and 2 and over dCas9:TurboID in experiment 2; nuclear proteins filtered at p < 0.1 across six datasets (high confidence interactors)

Binder | binding [1] | binding [2]
B1 | no binding | –
B2 | – | no binding

— paper PMC9938590
